The values below come from PubChem BioAssay AID1508600 (Functional Genomics Laboratory (NCATS/FGL), 2020).

The whole screen tested about 53,000 sequences, of which about 3,700 (7%) were called active.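 How the source made its calls: active means gene knockdowns whose robust z-score for IL-1 alpha signal is at least 2 or at most -2, so actives lie on both sides; inactive means the rest.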 This is one part of the list.

This test can be described thus: Components of the Cytosolic LPS Sensing Pathway: Gene Identification via Genome-wide siRNA Screen.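 Further: robust z of the log signal after scaling to non-targeting control siRNA wells of the plate.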 As to conditions: RAW264.7 macrophages, IL-1a HTRF, actives lie on both sides, screened at 100 nM (by protocol), cells primed 5 h with Pam3CSK4 first. Put shortly:
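Read-out: IL-1a HTRF on supernatant, divided by plate negative-control median ×100, log-transformed and converted to robust z-score. Cells were RAW264.7 given 100 nM siRNA, Pam3CSK4-primed 5 hours, then LipidA-transfected 24 hour.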
(In general: Time-resolved FRET reads energy transfer from a long-lived donor to a nearby acceptor.)
Turning to CCCAUAAUCUCCGAUAUCATT against Hsf1, the z-score was inactive: 0.292.

Regarding CCAGUGUUUGACUUGACCATT against Dpysl3, the z-score is inactive: 0.228.

With CCAUCAUACGAUGAUCUUATT against Pmaip1, the z-score is inactive: -0.696.

As to CGAUUACUGAACACUAUAUTT against Metap1, the z-score is inactive: 1.94.

GCGGCUUAGUCCAUCAGGATT against Aplf: the z-score is inactive: 0.819.

Take GGUACAAUCCCAGAUUUGATT against Smc3: the z-score was active: -2.37.

Regarding GGCAAAGAAGGAUUCCUGCTT against Nkx3-2, the z-score was inactive: 0.524.

Turning to CCGCUACAGGUUUACCAAGTT against Rhox8, the z-score was inactive: 0.129.

As for GGCUUCAUGAUGUCCUGCATT against Cdk5, the z-score is inactive: -0.0138.

In the case of GGCAAUAAGCCCUUCACAATT against Slc66a1, the z-score is inactive: -0.541.

With CCUUCUAUGGCCUUCUGAATT against Hapln4, the z-score is inactive: 0.419.

In the case of GGUUUGAUCACCUUAUUCUTT against Zfp750, the z-score is inactive: -0.226.

For GCAUCACUUGGGUGGACAATT against Olfr1280, the z-score was inactive: 0.736.

Turning to GGAAGAUCAAAAGGUCAUUTT against Mybl2, the z-score was inactive: -0.76.

Turning to GGCAAACCAGGAAAAGGUCTT against Abhd2, the z-score is active: -2.33.

In the case of GGUUCACUGUUACACUCUGTT against Cdk17, the z-score is inactive: -1.61.

Take CCACUGAGUUCUUUCUACUTT against Olfr49: the z-score is inactive: -0.957.

Take CCAUACCAAUGAAUGCCUCTT against Fas: the z-score was inactive: -1.4.

GCAAUAAAGAGUUCUGGCUTT against Cmtm2a: the z-score is inactive: -0.0256.

For the sequence “GGCCUAUAUUGAUGAUUUUTT against 4930503L19Rik”, the z-score is active: 2.31.

As for GCAGGAAUAUACGAAUCACTT against Tmprss12, the z-score is inactive: 0.0172.

For GGAACAAAUCGCUCUGUUGTT against Olfr1314, the z-score is inactive: -1.61.

Turning to CGAAAACAGUACGAUGCUUTT against Dnajb11, the z-score is inactive: 1.03.

For “GGCGCAACGAAUAAAAAUATT against D630023F18Rik”, the z-score was inactive: -0.581.

On to GGCGAUCAUAAACAGCAAUTT against Smyd3, for which the z-score was inactive: -1.19.

Consider GAUGGACAAUCUCAUGGAUTT against Pcp2, for which the z-score was inactive: 0.932.

Take GGUCCUACUGAAAACGCAUTT against Tmem229b: the z-score is inactive: -1.79.

As to GCGGCUAUGUUACAGGAGCTT against Prmt5, the z-score was inactive: -0.493.

GGUGAAGCAUCAGUGACAATT against Ubxn4: the z-score is inactive: 0.734.

Take “GCUAAUUGUUCACUAAAGGTT against 1700029H14Rik”: the z-score was inactive: 0.655.

On to CCCUGUGACUCCAAAAUGATT against Dbh, for which the z-score was inactive: -1.01.

Consider GGCCAGGAUAGCACUUCUUTT against Arsb, for which the z-score was inactive: -0.358.

CCAAGCAUUACAGAAACCATT against Olfr1148: the z-score was inactive: -0.917.

GGCCGAAAAUUUGUUUGUATT against Pcdhga9: the z-score is inactive: 0.349.

Consider GCAUUGUAAAGUUUGUACATT against Dnaja2, for which the z-score is inactive: 1.68.

As to “GGCUUGCCAUCGUAAAUCCTT against 1700019M22Rik”, the z-score was inactive: -1.69.

As for GGCAAAUAUUUCCAAGUACTT against Cpq, the z-score was inactive: -1.57.

On to GCUAUUUAGUUAGUUGUGUTT against Acbd3, for which the z-score was inactive: 0.334.

Turning to “GGGACUAGAUCAUUUUCUGTT against D630028G08Rik”, the z-score is inactive: 0.675.

For GGGUGCUAAAUCUUUUUGATT against Ccnf, the z-score is inactive: 1.

Regarding GGAUCCUCGGGAGUACAUGTT against Crybg3, the z-score is inactive: 0.287.

Regarding CCCUGUCACAACAUUCUCATT against Olfr1426, the z-score was inactive: -0.289.

Consider GGCAUUGGUUCCUACAAGATT against Gm773, for which the z-score was inactive: -0.118.

With GGCUUACCUGUACAUUGAUTT against Sptlc3, the z-score is inactive: -0.558.

Consider GCCAACAAGUUUAUCACUATT against Hoxb13, for which the z-score was inactive: -1.23.

For the sequence GGAGGAAAAGUCUUGUAGUTT against Armcx1, the z-score was inactive: 0.296.

On to GGAUGUUUUAACUUGGAAATT against Sema5a, for which the z-score was active: 2.25.

For GGUAUAAAAUGGAAAACUCTT against Lpar4, the z-score was inactive: 1.42.

Take GCAUGCGCCCUAAAGGAAATT against Zmynd15: the z-score is inactive: 0.687.

For the sequence “GGAUCCCUCAUUCGUCCCUTT against D430018E03Rik”, the z-score is inactive: 0.23.

GCUCCAAUCGGUGAUGUCUTT against Pla2g7: the z-score was inactive: -1.69.

For the sequence GCCCAACCCGAUUUGCAGATT against Cyp4a10, the z-score is inactive: -1.24.

In the case of CCGGCUGUACAAAGAGAAUTT against Rnf34, the z-score is inactive: 0.132.

Regarding GGCUACAGUGCUUCAAAAUTT against Ttc24, the z-score is inactive: -0.293.

Turning to CGUGAUGUGGGAAAUGGCATT against Avpr2, the z-score was inactive: -1.23.

With GGUCACUUUAGAUUUUGAATT against Stard13, the z-score is inactive: -0.987.

In the case of GGAAAAGGAAAGCUUUAGUTT against Fut4, the z-score was inactive: 0.632.

Turning to CCAACAAUGUUUAAAGGAUTT against Olfr476, the z-score is inactive: -0.32.

As to GGGCAGUGAGAAGAGAUUCTT against H2-Q1, the z-score is inactive: 0.421.

Take GGCUUCGUAGCUUUACAAATT against Abca6: the z-score was inactive: -0.846.

Turning to CGCACACGAUGUGGAAAUGTT against Ptger1, the z-score is inactive: -0.0322.

GUAAUUCACAGCCUCUCCGTT against Pitx3: the z-score is inactive: 1.03.

Take GCCAUAGCGAUCACUACUGTT against Spi1: the z-score was inactive: -1.07.

As for CCUUGUCAAUCAUUAUCUGTT against Olfr923, the z-score was inactive: 0.118.

Consider GGCUUCUCUCUAUGUAUUCTT against Tas2r116, for which the z-score is inactive: -0.441.

For CGGCAUCAUAUUGUGCGAATT against Cnn3, the z-score was inactive: 1.37.

Consider CGAGGAGAUAUCCAUCAAUTT against Nbr1, for which the z-score is inactive: -1.02.

Regarding GGAAGUGGUUGCUAAGCGATT against Prkn, the z-score was inactive: 0.0765.

Regarding CGGUCCUUGAAAGAGAUGGTT against Prkcsh, the z-score was inactive: 0.315.

Regarding CCUUAGAGAAAAUUAUUGCTT against Hgf, the z-score is inactive: 0.315.

Take GGGAGAGCUGCUGUUUUUCTT against Rxfp3: the z-score was inactive: 1.46.

Turning to GGAAGUAGCAACAAGCUACTT against Brd2, the z-score is inactive: 0.824.

With CCGACUGCUUAAUUACAAGTT against Efcab9, the z-score was inactive: 0.703.

As for GCAUGAAUCCAGCUCGAUCTT against Aqp4, the z-score was inactive: -0.375.

Take GGAGUUUGUAUCAAACUUATT against Zcchc8: the z-score is inactive: 0.0121.

For GGUGGAAGCAAUUUUAAAUTT against Trpc7, the z-score was inactive: 0.384.

On to GGGAAGAGCCCUAAUAUUATT against Aldh1a2, for which the z-score is inactive: -0.098.

For GGAGAAAACUCUAAAUAACTT against Klra2, the z-score is inactive: -0.35.

As for GGUUCAGUCCUUCUUAACATT against Fam114a1, the z-score was inactive: -1.5.

GCGGCAUCUAAAGCUCCACTT against Cdh1: the z-score was inactive: -0.313.

With GCAUCCUACGCAUUAAAUCTT against Olfr146, the z-score was inactive: -1.17.

On to GCACAACGUAAAAACAUCATT against Enox2, for which the z-score is inactive: 0.112.

Consider CGAGCAGACCUCUAUACAGTT against Nit2, for which the z-score is inactive: -1.55.

On to GGGUCUGAAUGACAGCAUCTT against Cd53, for which the z-score was inactive: 1.04.

GGUAACAUACUAAAAGAAGTT against Vmn2r10: the z-score is inactive: -1.21.

As for GGAAGCAGCUACUGGAAGATT against Cyth4, the z-score was inactive: -0.732.

With CCUUCAAUGAGAGCUUUAGTT against Olfr1157, the z-score was inactive: 0.797.

For GGAUCUUCAAUUCGUUGGUTT against Cachd1, the z-score was active: 2.75.

For GGCUUCACCAAAUGUGCAGTT against Mrpl50, the z-score is inactive: -0.768.

As to GCACAUCAGUACAUUUCACTT against Agap1, the z-score is inactive: -0.0313.

As for CCUUGCUGUCAUUUUGCUUTT against Tsr3, the z-score is inactive: 0.96.

GCCUAACUGCCCAGAAUCUTT against Psd4: the z-score was inactive: 0.207.

Turning to CGGAUGAAUUUGAUGGUCUTT against Ctbp2, the z-score is inactive: -0.872.

As for GCUGGACAUCGACUUUGGATT against Prnd, the z-score is inactive: -1.54.

CCUGGCUAAUGACUAGCUCTT against Muc15: the z-score was inactive: 0.875.

Consider GCUGAAGGAUCCCAUUAGATT against Cbx2, for which the z-score is inactive: -1.68.

GCUCUUCUCUGUACGACAUTT against Bcas3: the z-score was inactive: 1.28.

As for GGGAGCUUUGGAAAUUUUATT against Zbtb3, the z-score is inactive: 0.451.

As for GGUAUGUUUUCCUUAAGUGTT against Cdc42se1, the z-score was inactive: 1.92.

For GGUGUUUGGCAAUCUCAAUTT against Oplah, the z-score is inactive: 1.75.

For GGAACUAUCCAGUAGGUAGTT against Mill2, the z-score was inactive: 0.846.

Take CCACGUGGUUAUCUAUUAUTT against Armcx5: the z-score is inactive: 0.273.

For the sequence CCGGACUUUAUAUGACAACTT against Cd80, the z-score is inactive: 0.785.

Consider GGAAGUUUCAGAAAACAUGTT against Nasp, for which the z-score is inactive: -0.237.

For GCUAGUUGCAUUCUGUGCUTT against Rpl7l1, the z-score was inactive: 0.439.

On to GGAGCUGUUUUCUGUGAAGTT against Mrps2, for which the z-score is inactive: 0.0283.
